# In publication PMC12060747:
# B1: 26S proteasome subunit alpha type 1 (PAF1) (protein, UniProt Q8H1Y2 1-274)
# chain: MFRNQYDTDVTTWSPAGRLFQVEYAMEAVKQGSAAIGLRSKTHVILACVNKANSELSSHQKKIFKVDDHIGVAIAGLTADGRVLSRYMRNECINYSYAYESPLPVGRLVVQLADKAQVCTQRSWKRPYGVGLLVGGLDESGAHLYYNCPSGNYFEYQAFAIGSRSQAAKTYLERRFETFMDSSRETLLKDALFALRETLQGEKLTSTNCTVAVVGVGEAFHMLDKETIQALINEFEIAGEEAPAAAPDEAGSDEPAAAPEEGAPADQGAAPMDI
# Target: FLAG‐4×Myc‐tagged AMV CP (alfalfa mosaic virus)
# Assay: affinity purification with mass spectrometry; FLAG‐4×Myc‐CPAMV coexpressed with NPR1‐YFP in N. benthamiana leaves, affinity purified at 2 dpi, MS/MS; control: FLAG‐4×Myc tag coexpressed with NPR1‐YFP
binder,measurement,value
B1,binding,binds

# Results are given in words; binding and its absence hold for the method and conditions named. In cells and extracts the contact can be indirect. Here binding means that the protein was enriched with, or labelled near, the bait; the list need not be complete.
